Data taken from patent US4350700A, “Pharmaceutical composition containing 1,3,5-substituted biuret compound” (Taiho Pharmaceutical Company, Limited, priority 1979, dated 1982).
The name of at least one read-out is uncertain.

System: carrageenin-induced inflammation of the hindpaw of the rat
Assay: Anti-inflammatory activity, acute carrageenin-induced inflammatory test
Format: in vivo, rats (Wistar strain, male)
Conditions: oral, rats, "200 hours value"
Protocol: Next, several tests for determining the pharmacological properties, in that acute toxicity, anti-pyretic activity, analgesic activity and anti-inflammatory activity of the present 1,3,5-substituted biuret compounds of the formula (1) were conducted and the test results are shown in Table (2). In the tests, each compounds to be tested was used as a suspension in 0.25% carboxymethylcellulose solution. Methods for testing are explained as follows:
4. Anti-inflammatory Activity
According to the method of acute carrageenin-induced inflammatory test [Folia Pharmacologia Japonica, Vol. 56, pp. 575 (1960)], the Wistar strain of male rats (body weight, 150-180 g) were used as test animals. The rats were fasted overnight, 100 mg/kg body weight of the test compound was administered orally, then 1 hour after the administration, 0.1 ml of 1% carrageenin solution, as the inflammation inducing agent, was injected subcutaneously to the hindpaw of the rat and the volume of the hindpaw was measured at time sequences. Anti-inflammatory activity of the test compound was calculated as inflammation inhibitory ratio (%) at 3 hours after the injection of inflammation inducing agent.

CNC(=O)N(C)C(=O)Nc1ccccc1C(F)(F)F [compound 7, 1,3-Dimethyl-5-(2-trifluoromethylphenyl)biuret]
Anti-inflammatory activity, inflammation inhibitory ratio: 60%
